The values that follow come from the supplement of paper PMC6411743.

By UniProt entry, the sequences of proteins in these tests, tags left out. Where a name states a change or a piece, a line headed by the entry shows the natural chain unless it says otherwise.
UniProt P53778: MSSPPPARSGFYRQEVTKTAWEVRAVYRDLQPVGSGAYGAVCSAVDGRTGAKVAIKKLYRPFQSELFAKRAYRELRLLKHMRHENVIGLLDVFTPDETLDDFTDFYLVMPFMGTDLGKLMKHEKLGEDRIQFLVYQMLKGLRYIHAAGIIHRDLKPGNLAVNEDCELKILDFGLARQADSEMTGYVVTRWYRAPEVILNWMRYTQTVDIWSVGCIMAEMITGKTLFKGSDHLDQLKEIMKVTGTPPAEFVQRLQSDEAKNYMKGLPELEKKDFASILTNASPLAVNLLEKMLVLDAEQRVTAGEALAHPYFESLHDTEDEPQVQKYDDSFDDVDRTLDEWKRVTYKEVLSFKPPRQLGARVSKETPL
UniProt P84085: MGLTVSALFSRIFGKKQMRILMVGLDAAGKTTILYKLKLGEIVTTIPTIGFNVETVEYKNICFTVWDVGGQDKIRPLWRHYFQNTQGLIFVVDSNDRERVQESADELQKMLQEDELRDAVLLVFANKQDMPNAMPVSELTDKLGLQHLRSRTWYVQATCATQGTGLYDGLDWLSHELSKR
UniProt P55084: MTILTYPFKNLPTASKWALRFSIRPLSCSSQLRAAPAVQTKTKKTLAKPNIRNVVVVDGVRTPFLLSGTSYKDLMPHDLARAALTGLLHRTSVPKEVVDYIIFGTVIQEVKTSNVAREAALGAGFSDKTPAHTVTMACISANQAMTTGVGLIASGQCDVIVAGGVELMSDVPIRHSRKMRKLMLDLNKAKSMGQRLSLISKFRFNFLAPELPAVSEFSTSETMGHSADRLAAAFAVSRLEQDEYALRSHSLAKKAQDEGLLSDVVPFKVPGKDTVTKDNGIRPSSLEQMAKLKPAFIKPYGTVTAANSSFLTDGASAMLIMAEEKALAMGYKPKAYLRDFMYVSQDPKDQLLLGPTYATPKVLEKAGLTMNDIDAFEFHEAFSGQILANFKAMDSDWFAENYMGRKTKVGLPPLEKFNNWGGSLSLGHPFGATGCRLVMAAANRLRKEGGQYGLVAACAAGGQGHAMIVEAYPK
UniProt P56202: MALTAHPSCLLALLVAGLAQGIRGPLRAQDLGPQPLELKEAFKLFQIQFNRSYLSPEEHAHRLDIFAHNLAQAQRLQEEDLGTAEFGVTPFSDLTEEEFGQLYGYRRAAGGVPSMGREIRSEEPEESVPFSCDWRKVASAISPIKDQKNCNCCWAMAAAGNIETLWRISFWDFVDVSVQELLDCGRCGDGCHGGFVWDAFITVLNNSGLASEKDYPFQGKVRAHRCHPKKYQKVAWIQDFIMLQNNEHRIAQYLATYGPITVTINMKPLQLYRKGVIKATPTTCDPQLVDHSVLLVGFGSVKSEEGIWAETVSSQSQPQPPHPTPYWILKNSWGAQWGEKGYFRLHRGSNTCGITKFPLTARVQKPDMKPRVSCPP
UniProt P53365: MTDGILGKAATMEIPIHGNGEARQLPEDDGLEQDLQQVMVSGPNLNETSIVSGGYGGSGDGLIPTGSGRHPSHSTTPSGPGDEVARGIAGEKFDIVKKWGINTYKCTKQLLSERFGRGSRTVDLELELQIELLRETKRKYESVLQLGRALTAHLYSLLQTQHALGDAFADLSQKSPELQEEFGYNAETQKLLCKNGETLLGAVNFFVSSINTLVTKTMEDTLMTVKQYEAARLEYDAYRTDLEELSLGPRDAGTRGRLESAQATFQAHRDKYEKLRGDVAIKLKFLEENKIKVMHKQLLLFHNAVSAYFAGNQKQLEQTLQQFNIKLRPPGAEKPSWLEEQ
UniProt P54198, whole entry: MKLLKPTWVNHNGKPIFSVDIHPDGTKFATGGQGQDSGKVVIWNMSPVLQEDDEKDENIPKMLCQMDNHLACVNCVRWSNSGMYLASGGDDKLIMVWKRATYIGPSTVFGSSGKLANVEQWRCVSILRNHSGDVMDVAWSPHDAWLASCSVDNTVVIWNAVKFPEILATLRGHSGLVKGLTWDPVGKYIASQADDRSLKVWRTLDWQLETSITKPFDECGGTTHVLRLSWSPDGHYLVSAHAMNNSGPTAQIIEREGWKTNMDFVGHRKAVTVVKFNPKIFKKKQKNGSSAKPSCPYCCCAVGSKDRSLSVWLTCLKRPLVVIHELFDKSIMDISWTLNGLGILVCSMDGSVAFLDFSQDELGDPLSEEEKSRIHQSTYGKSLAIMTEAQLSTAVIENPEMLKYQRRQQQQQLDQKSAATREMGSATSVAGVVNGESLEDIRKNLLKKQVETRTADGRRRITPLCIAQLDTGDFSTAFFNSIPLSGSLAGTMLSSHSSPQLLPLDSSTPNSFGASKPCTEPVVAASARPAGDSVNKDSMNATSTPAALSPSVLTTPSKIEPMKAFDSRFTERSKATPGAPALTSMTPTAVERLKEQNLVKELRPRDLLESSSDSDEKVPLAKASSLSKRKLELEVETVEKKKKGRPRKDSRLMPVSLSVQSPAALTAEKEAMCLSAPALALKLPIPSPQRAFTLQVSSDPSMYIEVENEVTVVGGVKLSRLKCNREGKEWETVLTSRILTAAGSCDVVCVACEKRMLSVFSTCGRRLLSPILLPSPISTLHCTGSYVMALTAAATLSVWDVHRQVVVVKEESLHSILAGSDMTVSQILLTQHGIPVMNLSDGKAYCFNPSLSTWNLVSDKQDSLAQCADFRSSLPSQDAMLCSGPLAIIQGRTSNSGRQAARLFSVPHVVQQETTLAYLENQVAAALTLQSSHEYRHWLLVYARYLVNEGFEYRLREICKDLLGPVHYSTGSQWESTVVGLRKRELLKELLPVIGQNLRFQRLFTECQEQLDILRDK
UniProt P83876: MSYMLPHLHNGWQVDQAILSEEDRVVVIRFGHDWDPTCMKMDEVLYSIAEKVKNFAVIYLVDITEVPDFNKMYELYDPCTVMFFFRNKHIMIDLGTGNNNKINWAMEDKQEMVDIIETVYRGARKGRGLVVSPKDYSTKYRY
UniProt Q00325: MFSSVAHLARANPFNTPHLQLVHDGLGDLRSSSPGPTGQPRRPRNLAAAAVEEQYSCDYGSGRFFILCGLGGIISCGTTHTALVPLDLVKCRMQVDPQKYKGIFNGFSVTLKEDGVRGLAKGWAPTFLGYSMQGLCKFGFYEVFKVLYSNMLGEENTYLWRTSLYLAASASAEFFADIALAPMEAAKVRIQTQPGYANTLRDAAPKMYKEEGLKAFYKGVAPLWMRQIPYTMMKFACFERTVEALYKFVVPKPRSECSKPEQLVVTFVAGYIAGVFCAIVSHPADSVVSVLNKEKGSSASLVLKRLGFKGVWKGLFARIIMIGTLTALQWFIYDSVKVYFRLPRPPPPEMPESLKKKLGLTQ
UniProt P60842, whole entry: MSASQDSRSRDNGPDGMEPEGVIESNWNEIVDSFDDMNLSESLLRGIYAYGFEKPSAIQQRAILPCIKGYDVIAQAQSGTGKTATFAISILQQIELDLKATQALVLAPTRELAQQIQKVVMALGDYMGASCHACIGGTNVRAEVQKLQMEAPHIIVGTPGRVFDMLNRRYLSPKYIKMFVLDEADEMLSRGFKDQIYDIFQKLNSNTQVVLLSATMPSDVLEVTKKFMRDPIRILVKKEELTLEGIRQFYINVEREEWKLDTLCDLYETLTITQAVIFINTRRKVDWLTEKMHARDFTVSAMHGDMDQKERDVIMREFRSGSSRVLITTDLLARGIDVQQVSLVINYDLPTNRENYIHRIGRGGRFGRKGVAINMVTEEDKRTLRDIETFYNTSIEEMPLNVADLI
UniProt Q00688: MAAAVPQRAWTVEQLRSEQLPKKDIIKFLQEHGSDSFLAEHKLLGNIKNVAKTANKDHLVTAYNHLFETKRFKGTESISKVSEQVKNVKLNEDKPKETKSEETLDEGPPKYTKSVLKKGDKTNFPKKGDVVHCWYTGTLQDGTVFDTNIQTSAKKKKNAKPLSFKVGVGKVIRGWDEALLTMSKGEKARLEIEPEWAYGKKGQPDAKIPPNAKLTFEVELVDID
UniProt P62633: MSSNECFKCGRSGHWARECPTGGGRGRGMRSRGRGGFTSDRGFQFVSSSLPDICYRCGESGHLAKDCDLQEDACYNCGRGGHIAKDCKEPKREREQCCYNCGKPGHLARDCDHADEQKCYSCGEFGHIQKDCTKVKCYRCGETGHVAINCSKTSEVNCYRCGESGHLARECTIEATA
UniProt P53602: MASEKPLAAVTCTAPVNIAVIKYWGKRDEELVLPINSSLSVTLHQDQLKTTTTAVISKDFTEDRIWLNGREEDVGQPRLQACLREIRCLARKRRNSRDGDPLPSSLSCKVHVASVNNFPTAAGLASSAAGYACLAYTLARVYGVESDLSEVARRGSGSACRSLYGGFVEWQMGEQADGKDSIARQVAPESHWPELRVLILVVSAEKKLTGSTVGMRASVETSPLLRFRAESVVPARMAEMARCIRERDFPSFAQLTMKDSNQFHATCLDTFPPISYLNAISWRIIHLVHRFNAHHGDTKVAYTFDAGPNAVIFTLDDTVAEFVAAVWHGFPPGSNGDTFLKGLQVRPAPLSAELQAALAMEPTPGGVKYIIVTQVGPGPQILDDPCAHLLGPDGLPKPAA
UniProt P54725: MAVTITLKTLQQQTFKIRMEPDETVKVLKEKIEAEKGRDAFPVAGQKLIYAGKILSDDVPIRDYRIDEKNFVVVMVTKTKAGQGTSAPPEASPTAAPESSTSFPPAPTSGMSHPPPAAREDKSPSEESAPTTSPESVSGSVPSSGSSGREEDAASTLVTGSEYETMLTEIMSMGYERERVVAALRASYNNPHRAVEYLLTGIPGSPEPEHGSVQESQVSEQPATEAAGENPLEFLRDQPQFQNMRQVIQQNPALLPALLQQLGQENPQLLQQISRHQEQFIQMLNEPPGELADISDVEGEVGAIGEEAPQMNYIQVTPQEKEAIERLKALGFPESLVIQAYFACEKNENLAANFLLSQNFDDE
UniProt P55899: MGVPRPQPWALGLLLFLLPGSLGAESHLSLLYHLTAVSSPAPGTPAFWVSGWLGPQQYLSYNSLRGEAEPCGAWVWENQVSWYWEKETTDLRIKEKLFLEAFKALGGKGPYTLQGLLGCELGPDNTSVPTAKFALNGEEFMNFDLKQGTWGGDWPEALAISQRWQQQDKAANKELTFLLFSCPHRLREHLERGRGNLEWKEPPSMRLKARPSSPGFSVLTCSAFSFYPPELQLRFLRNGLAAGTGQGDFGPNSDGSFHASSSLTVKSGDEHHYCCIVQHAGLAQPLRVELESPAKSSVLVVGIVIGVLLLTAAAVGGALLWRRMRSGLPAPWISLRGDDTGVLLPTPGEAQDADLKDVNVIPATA
UniProt P78316: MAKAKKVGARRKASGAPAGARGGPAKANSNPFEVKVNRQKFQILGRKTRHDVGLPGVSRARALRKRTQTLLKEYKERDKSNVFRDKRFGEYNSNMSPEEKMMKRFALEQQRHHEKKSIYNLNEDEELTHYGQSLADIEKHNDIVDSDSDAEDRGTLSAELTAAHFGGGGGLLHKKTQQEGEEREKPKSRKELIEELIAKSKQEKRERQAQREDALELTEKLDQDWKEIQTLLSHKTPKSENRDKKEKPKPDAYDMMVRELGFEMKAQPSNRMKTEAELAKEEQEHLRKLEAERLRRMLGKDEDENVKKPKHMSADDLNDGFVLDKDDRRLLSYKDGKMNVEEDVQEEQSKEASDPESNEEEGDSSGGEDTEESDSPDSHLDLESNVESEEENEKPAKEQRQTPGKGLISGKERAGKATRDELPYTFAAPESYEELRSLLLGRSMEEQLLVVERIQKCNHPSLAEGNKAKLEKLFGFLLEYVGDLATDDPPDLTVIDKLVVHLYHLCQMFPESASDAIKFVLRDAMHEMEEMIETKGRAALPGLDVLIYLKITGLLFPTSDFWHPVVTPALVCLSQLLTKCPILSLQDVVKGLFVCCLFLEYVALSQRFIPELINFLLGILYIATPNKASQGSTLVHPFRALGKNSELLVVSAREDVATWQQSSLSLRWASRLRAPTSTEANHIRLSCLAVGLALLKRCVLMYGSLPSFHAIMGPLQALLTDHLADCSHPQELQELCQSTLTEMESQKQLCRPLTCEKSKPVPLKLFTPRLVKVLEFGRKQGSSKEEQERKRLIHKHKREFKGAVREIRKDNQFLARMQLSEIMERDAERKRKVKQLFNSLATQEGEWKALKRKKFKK
UniProt Q00613: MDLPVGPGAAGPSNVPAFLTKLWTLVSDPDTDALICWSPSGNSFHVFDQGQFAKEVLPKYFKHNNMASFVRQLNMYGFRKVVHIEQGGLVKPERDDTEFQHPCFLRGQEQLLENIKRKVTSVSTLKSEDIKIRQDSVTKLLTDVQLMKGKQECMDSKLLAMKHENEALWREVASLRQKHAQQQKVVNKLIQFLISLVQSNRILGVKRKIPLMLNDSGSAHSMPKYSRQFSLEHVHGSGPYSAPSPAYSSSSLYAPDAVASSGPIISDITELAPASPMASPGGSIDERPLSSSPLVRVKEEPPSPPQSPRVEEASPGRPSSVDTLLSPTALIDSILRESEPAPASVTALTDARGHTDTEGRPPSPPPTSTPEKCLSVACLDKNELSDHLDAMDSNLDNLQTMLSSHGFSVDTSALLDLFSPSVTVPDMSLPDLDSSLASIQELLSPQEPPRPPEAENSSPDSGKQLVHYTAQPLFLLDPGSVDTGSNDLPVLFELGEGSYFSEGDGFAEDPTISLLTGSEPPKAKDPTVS

Compound in this assay: Nc1ncnc2c1ncn2[C@@H]1O[C@H](COP(=O)(O)OP(=O)(O)OP(=O)(O)O)[C@@H](O)[C@H]1O [adenosine triphosphate]
Nature of the assay: NP40-soluble protein abundance relative to vehicle (solubility fold change) (ratio); higher = more soluble protein in presence of ATP. An outline of the steps: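 Each value is a fold change relative to the detergent-processed vehicle, calculated per replicate from vsn-normalised intensities. Jurkat crude lysate received eight concentrations (0.1 to 10 mM) for 10 min at room temperature and 3 min at 37 °C, then was solubilised in 0.8% NP40 with benzonase (60 min, 4 °C). The ultracentrifuged supernatant was TMT-labelled and run by LC-MS/MS in three independent experiments.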

± gives the standard deviation of the averaged measurements. The entries are a selection whose mix differs from that of the whole data set. Most values lie at the level of the controls, where differences are scatter.

For UniProt P53778 and related entries, the NP40-soluble protein abundance is, setting by setting: (concentration: 0.1mM) 1.09 ± 0.066; (concentration: 0.5mM) 1.04 ± 0.053.
UniProt P62491: the NP40-soluble protein abundance was found to be 1.15 ± 0.17 (concentration: 0.1mM) and 1.18 ± 0.1 (concentration: 0.5mM).
In the case of UniProt P78332 and related entries, the NP40-soluble protein abundance was 0.986 ± 0.023 (concentration: 0.1mM) and 1.02 ± 0.028 (concentration: 0.5mM).
In the case of UniProt P62487, the NP40-soluble protein abundance by setting is: (concentration: 0.1mM) 0.992 ± 0.076; (concentration: 0.5mM) 0.969 ± 0.07.
As for MRPS34 (UniProt P82930), the NP40-soluble protein abundance was 0.967 ± 0.094 (concentration: 0.1mM) and 0.945 ± 0.1 (concentration: 0.5mM).
In the case of UniProt P84085, the NP40-soluble protein abundance stood at 1.07 ± 0.14 (concentration: 0.1mM) and 0.981 ± 0.033 (concentration: 0.5mM).
For HADHB (UniProt P55084), in that order: 0.994 ± 0.026 and 0.995 ± 0.04.
Turning to SRP54 (UniProt P61011), the NP40-soluble protein abundance runs as follows: (concentration: 0.1mM) 0.988 ± 0.024; (concentration: 0.5mM) 1.01 ± 0.066.
As to PITPNA (UniProt Q00169), the NP40-soluble protein abundance stood at 1.02 ± 0.063 (concentration: 0.1mM) and 1.02 ± 0.028 (concentration: 0.5mM).
For the target UniProt P82970, the NP40-soluble protein abundance is, setting by setting: (concentration: 0.1mM) 0.915 ± 0.049; (concentration: 0.5mM) 1.03 ± 0.085.
UniProt P56202 and related entries: the NP40-soluble protein abundance worked out at 1 ± 0.038 (concentration: 0.1mM) and 1.01 ± 0.086 (concentration: 0.5mM).
As for UniProt P53365 and related entries, the NP40-soluble protein abundance is, setting by setting: (concentration: 0.1mM) 0.975 ± 0.021; (concentration: 0.5mM) 0.952 ± 0.027.
For HIRA (UniProt P54198), in that order: 1.01 ± 0.11 and 1.04 ± 0.064.
Consider CTSC (UniProt P53634), for which the NP40-soluble protein abundance by setting is: (concentration: 0.1mM) 0.98 ± 0.062; (concentration: 0.5mM) 1.02 ± 0.099.
Turning to MRPS9 (UniProt P82933), the NP40-soluble protein abundance (concentration: 0.1mM) is 0.987 ± 0.092 and the NP40-soluble protein abundance (concentration: 0.5mM) came to 1 ± 0.06.
In the same order, the values of UniProt P98095 and related entries are 0.985 ± 0.075 and 0.982 ± 0.025.
Regarding UniProt P83876, the NP40-soluble protein abundance was 1.09 ± 0.077 (concentration: 0.1mM) and 1.17 ± 0.14 (concentration: 0.5mM).
Consider UniProt P61009, for which the NP40-soluble protein abundance (concentration: 0.1mM) amounted to 1.02 ± 0.038 and the NP40-soluble protein abundance (concentration: 0.5mM) worked out at 1.03 ± 0.022.
As to UniProt P54687 and related entries, the NP40-soluble protein abundance (concentration: 0.1mM) was 1.06 ± 0.078 and the NP40-soluble protein abundance (concentration: 0.5mM) amounted to 1.03 ± 0.084.
For UniProt P60953 and related entries, in that order: 0.92 ± 0.085 and 0.982 ± 0.099.
With UniProt P62857, the NP40-soluble protein abundance (concentration: 0.1mM) came to 0.899 ± 0.18 and the NP40-soluble protein abundance (concentration: 0.5mM) worked out at 0.807 ± 0.094.
Turning to UniProt P62249, the NP40-soluble protein abundance was 0.873 ± 0.1 (concentration: 0.1mM) and 0.824 ± 0.12 (concentration: 0.5mM).
In the case of UniProt P55060 and related entries, the NP40-soluble protein abundance came to 0.966 ± 0.03 (concentration: 0.1mM) and 0.966 ± 0.03 (concentration: 0.5mM).
Regarding UniProt P84022, the NP40-soluble protein abundance runs as follows: (concentration: 0.1mM) 0.98 ± 0.039; (concentration: 0.5mM) 0.981 ± 0.063.
MRPS5 (UniProt P82675): the NP40-soluble protein abundance (concentration: 0.1mM) came out at 0.97 ± 0.092 and the NP40-soluble protein abundance (concentration: 0.5mM) was 1.01 ± 0.083.
In the same order, the values of UniProt Q00325 and related entries are 0.911 ± 0.034 and 0.916 ± 0.079.
As to UniProt P98155 and related entries, the NP40-soluble protein abundance by setting is: (concentration: 0.1mM) 0.988 ± 0.035; (concentration: 0.5mM) 0.985 ± 0.014.
For the target UniProt P63000 and related entries, the NP40-soluble protein abundance is, setting by setting: (concentration: 0.1mM) 1.05 ± 0.071; (concentration: 0.5mM) 1.03 ± 0.071.
In the same order, the values of EIF5 (UniProt P55010) are 1.01 ± 0.024 and 1.05 ± 0.06.
For UniProt P60842, the NP40-soluble protein abundance was 1.03 ± 0.065 (concentration: 0.1mM) and 1.09 ± 0.056 (concentration: 0.5mM).
For the target FKBP3 (UniProt Q00688), the NP40-soluble protein abundance (concentration: 0.1mM) was found to be 0.956 ± 0.036 and the NP40-soluble protein abundance (concentration: 0.5mM) turned out to be 0.995 ± 0.028.
UniProt P62306: the NP40-soluble protein abundance is 0.9 ± 0.018 (concentration: 0.1mM) and 0.934 ± 0.15 (concentration: 0.5mM).
In the same order, the values of UniProt P61073 and related entries are 0.944 ± 0.035 and 0.932 ± 0.084.
For the target UniProt P55771, the NP40-soluble protein abundance stood at 0.929 ± 0.27 (concentration: 0.1mM) and 0.878 ± 0.18 (concentration: 0.5mM).
In the case of UniProt P62633 and related entries, the NP40-soluble protein abundance (concentration: 0.1mM) turned out to be 1.06 ± 0.061 and the NP40-soluble protein abundance (concentration: 0.5mM) is 1.02 ± 0.058.
For the target MRPS15 (UniProt P82914), the NP40-soluble protein abundance came to 0.869 ± 0.13 (concentration: 0.1mM) and 0.904 ± 0.13 (concentration: 0.5mM).
Regarding UniProt P62899, the NP40-soluble protein abundance runs as follows: (concentration: 0.1mM) 0.943 ± 0.16; (concentration: 0.5mM) 0.897 ± 0.16.
In the same order, the values of MVD (UniProt P53602) are 1.03 ± 0.072 and 1 ± 0.03.
UniProt Q00537 and related entries: the NP40-soluble protein abundance by setting is: (concentration: 0.1mM) 0.988 ± 0.065; (concentration: 0.5mM) 1.14 ± 0.044.
UniProt Q00536 and related entries: the NP40-soluble protein abundance came out at 0.978 ± 0.025 (concentration: 0.1mM) and 0.997 ± 0.028 (concentration: 0.5mM).
For UniProt P54725 and related entries, the NP40-soluble protein abundance (concentration: 0.1mM) is 0.891 ± 0.036 and the NP40-soluble protein abundance (concentration: 0.5mM) came out at 0.857 ± 0.08.
With UniProt P63313, the NP40-soluble protein abundance (concentration: 0.1mM) stood at 0.952 ± 0.054 and the NP40-soluble protein abundance (concentration: 0.5mM) amounted to 0.935 ± 0.072.
As for UniProt P61019 and related entries, the NP40-soluble protein abundance (concentration: 0.1mM) stood at 1.05 ± 0.098 and the NP40-soluble protein abundance (concentration: 0.5mM) turned out to be 0.998 ± 0.038.
As for UniProt P62244 and related entries, the NP40-soluble protein abundance is 0.89 ± 0.1 (concentration: 0.1mM) and 0.852 ± 0.1 (concentration: 0.5mM).
For COPA (UniProt P53621), in that order: 1.01 ± 0.061 and 1.02 ± 0.029.
For “P86790 and related entries (UniProt P86791+P86790)”, in that order: 1.06 ± 0.042 and 1.07 ± 0.057.
For NUP107 (UniProt P57740), the NP40-soluble protein abundance by setting is: (concentration: 0.1mM) 1.04 ± 0.06; (concentration: 0.5mM) 1.04 ± 0.064.
Consider COG7 (UniProt P83436), for which the NP40-soluble protein abundance was 0.952 ± 0.053 (concentration: 0.1mM) and 0.947 ± 0.038 (concentration: 0.5mM).
In the same order, the values of UniProt P55072 are 1 ± 0.027 and 1.01 ± 0.056.
In the case of UniProt P55899 and related entries, the NP40-soluble protein abundance runs as follows: (concentration: 0.1mM) 0.936 ± 0.095; (concentration: 0.5mM) 0.897 ± 0.085.
Take UniProt P61964: the NP40-soluble protein abundance reads like this: (concentration: 0.1mM) 0.945 ± 0.029; (concentration: 0.5mM) 0.958 ± 0.036.
On to NOP14 (UniProt P78316), for which the NP40-soluble protein abundance (concentration: 0.1mM) is 0.956 ± 0.02 and the NP40-soluble protein abundance (concentration: 0.5mM) was determined as 0.966 ± 0.034.
For UniProt P60866 and related entries, the NP40-soluble protein abundance was 0.928 ± 0.13 (concentration: 0.1mM) and 0.901 ± 0.072 (concentration: 0.5mM).
In the same order, the values of UniProt P61981 are 0.977 ± 0.17 and 0.741 ± 0.14.
With UniProt P55347 and related entries, the NP40-soluble protein abundance (concentration: 0.1mM) came to 1.01 ± 0.032 and the NP40-soluble protein abundance (concentration: 0.5mM) is 1.02 ± 0.096.
CRADD (UniProt P78560): the NP40-soluble protein abundance reads like this: (concentration: 0.1mM) 0.921 ± 0.055; (concentration: 0.5mM) 0.884 ± 0.068.
In the case of ATN1 (UniProt P54259), the NP40-soluble protein abundance came out at 0.974 ± 0.18 (concentration: 0.1mM) and 0.993 ± 0.018 (concentration: 0.5mM).
Regarding UniProt P82912 and related entries, the NP40-soluble protein abundance (concentration: 0.1mM) came to 0.982 ± 0.043 and the NP40-soluble protein abundance (concentration: 0.5mM) was 1.02 ± 0.067.
For UniProt Q00613 and related entries, in that order: 0.9763 ± 0.0093 and 0.943 ± 0.04.
Turning to MAT1A (UniProt Q00266), the NP40-soluble protein abundance runs as follows: (concentration: 0.1mM) 1.09 ± 0.091; (concentration: 0.5mM) 1.02 ± 0.13.
